# From publication PMC12561918
# Chains of the proteins cited; added tags and fusions are not shown. Residues count along the entry.
# UniProt I6Y4D2, residues 25-241: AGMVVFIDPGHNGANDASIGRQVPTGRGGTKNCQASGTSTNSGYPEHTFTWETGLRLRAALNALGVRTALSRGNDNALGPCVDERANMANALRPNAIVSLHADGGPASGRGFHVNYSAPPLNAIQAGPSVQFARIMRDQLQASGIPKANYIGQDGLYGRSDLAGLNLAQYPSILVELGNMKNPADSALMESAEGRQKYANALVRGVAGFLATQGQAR
# UniProt Q12905: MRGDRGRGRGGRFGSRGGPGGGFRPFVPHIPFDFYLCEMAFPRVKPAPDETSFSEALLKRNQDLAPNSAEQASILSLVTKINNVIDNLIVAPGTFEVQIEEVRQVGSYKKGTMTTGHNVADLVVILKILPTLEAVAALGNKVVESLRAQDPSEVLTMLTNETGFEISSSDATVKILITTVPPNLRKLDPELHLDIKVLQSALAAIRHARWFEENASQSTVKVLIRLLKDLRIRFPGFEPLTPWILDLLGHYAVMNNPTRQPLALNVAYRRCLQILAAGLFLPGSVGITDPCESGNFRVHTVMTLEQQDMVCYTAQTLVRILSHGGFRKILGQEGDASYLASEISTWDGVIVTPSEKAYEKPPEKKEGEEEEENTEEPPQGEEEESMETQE
# These are yes or no findings as the source states them, for the method shown. Binding seen in cells or lysates may run through a third protein. Some binding calls cover weakened binding; strength is not graded here.
# Target: Flag-Rv3717 (Mycobacterium tuberculosis Rv3717) expressed in HEK293T cells (Mycobacterium tuberculosis) (UniProt I6Y4D2)
# Experiment: co-IP
substance,measurement,value
HA-ILF2 (interleukin enhancer-binding factor 2) (from UniProt Q12905 1-390),binding,binds
